Some of the results follow.
Legend:
Test in all cases: log2 fold change, soluble protein after heating vs DMSO (PISA); higher = thermal stabilisation; K562 lysate, 10 uM; active = over 0.2 and 3.5 SD of the protein, either way, in both replicates (recomputed)
[1] = compound: CCCS(=O)(=O)Nc1ccc(F)c(C(=O)c2c[nH]c3ncc(-c4ccc(Cl)cc4)cc23)c1F [vemurafenib]
How it was run: (§1)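 Log-two fold change in thermal stability relative to solvent controls is reported from duplicates. For each sample, crude K562 extract from dounce-homogenised pellets in PBS pH 7.4 with 1 mM MgCl2, at 1 mg/mL protein, was treated with 10 μM compound for 30 min. Aliquots heated for 3 min across 48°C-58°C were pooled, brought to 0.5% NP-40 at 4°C and cleared at 21,000xg for 90 min. The supernatant was quantified by TMTpro 16plex LC-MS/MS with channel sums equalised.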

By UniProt entry, the sequences of proteins in these tests, tags left out. Where a name states a change or a piece, a line headed by the entry shows the natural chain unless it says otherwise.
UniProt Q15742: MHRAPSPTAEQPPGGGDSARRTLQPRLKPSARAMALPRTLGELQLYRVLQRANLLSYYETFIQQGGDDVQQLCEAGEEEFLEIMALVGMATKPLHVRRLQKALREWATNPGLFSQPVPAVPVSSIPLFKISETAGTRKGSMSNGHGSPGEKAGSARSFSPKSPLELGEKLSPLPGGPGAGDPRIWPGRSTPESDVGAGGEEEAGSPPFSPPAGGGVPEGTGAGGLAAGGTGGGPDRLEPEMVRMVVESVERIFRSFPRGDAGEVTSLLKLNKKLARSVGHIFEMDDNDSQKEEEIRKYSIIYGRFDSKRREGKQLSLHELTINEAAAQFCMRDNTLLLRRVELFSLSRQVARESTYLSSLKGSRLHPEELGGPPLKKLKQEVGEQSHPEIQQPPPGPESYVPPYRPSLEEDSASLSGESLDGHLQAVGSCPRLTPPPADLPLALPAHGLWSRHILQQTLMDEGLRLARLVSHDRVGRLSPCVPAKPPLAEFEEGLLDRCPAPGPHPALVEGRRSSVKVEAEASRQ
UniProt P10244: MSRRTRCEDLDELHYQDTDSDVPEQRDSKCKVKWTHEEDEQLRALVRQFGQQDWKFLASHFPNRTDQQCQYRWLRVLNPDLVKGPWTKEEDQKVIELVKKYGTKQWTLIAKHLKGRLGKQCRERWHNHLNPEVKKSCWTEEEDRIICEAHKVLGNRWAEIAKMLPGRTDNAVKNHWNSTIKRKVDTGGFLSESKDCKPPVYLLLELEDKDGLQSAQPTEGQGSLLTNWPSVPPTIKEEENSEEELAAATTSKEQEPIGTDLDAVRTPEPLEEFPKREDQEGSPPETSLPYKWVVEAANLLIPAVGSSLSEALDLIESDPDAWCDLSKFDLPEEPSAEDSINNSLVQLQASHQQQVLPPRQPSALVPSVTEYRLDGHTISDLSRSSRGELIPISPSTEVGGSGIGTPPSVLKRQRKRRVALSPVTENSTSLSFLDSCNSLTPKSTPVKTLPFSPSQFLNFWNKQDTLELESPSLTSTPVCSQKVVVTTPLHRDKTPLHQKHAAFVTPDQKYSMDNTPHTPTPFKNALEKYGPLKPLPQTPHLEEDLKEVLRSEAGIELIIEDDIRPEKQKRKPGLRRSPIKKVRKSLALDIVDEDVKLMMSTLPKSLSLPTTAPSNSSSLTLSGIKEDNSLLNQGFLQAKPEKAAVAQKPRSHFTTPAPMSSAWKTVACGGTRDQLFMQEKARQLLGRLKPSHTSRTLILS
UniProt P17050: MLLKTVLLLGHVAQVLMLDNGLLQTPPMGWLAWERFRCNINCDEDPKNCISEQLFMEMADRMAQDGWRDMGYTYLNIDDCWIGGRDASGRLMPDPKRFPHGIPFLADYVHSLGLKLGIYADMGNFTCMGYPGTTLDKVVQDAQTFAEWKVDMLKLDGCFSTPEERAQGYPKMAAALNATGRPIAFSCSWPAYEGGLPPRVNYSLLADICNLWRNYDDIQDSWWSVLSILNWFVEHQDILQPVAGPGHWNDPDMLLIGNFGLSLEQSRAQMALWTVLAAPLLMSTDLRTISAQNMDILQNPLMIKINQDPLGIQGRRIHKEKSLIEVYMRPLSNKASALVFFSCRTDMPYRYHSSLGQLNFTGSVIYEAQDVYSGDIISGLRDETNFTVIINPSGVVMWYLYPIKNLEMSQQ
UniProt Q5TBK1: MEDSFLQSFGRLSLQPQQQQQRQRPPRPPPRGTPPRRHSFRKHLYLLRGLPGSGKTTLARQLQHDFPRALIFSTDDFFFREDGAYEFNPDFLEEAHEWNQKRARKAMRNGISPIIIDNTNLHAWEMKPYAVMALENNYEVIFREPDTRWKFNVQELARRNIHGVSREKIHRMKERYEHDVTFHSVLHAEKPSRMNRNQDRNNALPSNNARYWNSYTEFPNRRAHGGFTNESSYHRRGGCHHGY
UniProt Q03426, whole entry, looked up: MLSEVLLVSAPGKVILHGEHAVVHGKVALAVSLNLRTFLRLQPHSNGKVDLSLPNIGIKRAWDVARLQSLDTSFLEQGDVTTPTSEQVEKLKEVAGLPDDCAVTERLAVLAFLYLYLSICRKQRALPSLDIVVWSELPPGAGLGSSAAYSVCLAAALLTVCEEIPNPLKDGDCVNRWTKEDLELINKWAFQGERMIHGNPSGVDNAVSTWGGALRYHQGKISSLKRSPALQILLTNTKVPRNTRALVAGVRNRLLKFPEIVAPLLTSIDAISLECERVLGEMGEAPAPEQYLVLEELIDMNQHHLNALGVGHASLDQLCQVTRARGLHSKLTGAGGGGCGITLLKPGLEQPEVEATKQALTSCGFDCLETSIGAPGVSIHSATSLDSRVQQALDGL
UniProt P08590, whole entry, looked up: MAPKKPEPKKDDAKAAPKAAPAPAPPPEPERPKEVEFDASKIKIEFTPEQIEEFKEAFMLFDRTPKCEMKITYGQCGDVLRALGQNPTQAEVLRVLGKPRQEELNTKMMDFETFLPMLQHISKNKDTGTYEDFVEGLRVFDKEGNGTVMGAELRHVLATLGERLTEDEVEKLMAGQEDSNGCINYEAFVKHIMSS
UniProt Q15788: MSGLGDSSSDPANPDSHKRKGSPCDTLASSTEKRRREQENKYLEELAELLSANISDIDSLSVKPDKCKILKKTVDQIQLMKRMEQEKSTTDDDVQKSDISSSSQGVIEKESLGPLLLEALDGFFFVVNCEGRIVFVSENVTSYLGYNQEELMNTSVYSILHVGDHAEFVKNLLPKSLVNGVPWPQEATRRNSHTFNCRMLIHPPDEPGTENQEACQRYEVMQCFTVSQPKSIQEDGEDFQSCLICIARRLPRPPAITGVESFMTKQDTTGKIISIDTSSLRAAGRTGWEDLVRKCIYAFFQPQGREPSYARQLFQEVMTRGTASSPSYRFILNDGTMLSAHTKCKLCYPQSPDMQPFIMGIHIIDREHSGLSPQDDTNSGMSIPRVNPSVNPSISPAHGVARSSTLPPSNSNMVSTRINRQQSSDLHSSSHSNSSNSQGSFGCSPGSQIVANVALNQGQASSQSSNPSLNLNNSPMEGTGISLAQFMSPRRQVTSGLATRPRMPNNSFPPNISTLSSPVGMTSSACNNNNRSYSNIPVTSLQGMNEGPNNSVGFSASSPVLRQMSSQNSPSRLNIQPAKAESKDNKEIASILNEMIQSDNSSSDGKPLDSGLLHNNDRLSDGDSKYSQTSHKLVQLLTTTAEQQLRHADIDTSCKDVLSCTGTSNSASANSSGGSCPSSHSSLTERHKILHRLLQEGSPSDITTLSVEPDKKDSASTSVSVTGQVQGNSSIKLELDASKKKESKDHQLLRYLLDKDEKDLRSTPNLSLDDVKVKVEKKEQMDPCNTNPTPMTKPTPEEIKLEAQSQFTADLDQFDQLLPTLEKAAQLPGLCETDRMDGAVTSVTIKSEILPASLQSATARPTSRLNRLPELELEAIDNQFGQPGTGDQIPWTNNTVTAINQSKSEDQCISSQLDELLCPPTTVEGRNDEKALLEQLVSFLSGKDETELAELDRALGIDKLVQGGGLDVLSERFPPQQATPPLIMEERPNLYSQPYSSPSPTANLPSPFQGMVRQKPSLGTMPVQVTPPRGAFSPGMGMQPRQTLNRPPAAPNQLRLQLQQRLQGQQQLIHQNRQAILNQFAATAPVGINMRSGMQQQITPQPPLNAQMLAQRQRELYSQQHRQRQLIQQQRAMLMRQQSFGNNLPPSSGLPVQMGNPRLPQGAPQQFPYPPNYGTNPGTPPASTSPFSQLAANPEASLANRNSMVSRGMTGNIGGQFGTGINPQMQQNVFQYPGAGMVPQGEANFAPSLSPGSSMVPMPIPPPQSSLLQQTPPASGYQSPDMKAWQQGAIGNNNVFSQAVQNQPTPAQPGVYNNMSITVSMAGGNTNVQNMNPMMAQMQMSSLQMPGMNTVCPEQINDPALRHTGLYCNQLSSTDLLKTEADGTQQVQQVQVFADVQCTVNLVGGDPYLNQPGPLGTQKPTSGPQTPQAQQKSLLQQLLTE
UniProt Q8WUY8: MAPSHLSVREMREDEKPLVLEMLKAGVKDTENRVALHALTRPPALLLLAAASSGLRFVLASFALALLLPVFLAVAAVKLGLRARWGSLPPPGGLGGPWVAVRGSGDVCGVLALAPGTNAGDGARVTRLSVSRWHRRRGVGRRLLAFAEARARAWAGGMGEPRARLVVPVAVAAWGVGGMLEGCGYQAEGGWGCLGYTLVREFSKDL
UniProt P10242: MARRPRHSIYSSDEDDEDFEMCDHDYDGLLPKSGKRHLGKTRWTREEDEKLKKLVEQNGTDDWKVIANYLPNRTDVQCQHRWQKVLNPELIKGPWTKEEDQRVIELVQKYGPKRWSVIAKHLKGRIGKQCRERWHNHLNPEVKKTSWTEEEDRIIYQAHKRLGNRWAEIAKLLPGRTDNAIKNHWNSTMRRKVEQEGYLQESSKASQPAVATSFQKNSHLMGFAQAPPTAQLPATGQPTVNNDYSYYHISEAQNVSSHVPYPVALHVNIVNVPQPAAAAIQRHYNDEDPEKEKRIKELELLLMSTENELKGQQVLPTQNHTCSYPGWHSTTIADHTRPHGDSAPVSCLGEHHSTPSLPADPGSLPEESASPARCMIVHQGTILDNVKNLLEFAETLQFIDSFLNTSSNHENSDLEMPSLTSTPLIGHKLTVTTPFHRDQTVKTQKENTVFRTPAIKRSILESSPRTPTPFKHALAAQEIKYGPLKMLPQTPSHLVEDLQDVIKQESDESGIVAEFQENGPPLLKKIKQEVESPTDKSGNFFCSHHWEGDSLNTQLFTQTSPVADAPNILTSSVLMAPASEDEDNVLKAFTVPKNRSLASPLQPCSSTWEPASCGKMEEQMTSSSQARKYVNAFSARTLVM
UniProt B0I1T2: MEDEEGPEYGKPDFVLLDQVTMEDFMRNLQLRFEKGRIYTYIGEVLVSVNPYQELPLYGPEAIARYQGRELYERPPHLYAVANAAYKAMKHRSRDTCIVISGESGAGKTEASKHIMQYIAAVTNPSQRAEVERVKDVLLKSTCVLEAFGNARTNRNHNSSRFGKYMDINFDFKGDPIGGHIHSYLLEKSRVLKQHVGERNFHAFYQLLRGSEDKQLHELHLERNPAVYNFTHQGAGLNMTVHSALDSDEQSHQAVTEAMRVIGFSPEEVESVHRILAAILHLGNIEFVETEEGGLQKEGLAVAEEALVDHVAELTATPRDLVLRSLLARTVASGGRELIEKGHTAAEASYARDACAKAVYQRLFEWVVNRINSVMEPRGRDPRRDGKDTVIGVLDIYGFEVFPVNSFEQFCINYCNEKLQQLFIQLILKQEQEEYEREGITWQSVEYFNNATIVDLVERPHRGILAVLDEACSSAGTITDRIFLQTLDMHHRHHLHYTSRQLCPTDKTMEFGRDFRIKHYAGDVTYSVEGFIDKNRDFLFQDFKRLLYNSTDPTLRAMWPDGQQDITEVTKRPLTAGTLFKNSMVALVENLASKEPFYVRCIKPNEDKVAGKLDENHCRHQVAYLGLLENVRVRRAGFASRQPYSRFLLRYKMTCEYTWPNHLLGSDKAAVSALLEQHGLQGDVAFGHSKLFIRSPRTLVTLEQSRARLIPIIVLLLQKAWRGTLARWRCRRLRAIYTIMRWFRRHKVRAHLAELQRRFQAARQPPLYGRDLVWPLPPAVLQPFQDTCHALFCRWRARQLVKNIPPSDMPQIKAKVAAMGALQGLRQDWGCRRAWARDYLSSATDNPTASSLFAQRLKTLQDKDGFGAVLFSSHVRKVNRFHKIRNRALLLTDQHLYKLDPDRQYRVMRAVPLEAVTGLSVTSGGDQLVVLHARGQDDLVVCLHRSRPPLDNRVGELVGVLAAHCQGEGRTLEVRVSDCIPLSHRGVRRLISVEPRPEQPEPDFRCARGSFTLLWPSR
UniProt P01106: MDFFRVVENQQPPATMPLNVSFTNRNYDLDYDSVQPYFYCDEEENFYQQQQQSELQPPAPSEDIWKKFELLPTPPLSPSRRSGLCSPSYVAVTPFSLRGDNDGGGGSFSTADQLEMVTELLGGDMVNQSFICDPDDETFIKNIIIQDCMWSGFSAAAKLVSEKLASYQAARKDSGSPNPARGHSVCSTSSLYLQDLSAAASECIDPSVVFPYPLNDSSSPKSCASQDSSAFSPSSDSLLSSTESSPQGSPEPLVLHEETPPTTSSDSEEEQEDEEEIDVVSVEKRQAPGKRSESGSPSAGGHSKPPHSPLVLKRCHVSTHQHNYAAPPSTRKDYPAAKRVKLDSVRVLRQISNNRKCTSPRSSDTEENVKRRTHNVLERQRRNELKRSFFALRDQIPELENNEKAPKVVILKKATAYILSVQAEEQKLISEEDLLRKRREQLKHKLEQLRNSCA

[2] = compound: CCN(CCCOc1ccc2c(Nc3cc(CC(=O)Nc4cccc(F)c4)[nH]n3)ncnc2c1)CCOP(=O)(O)O [barasertib]
How it was run: as §1

[3] = compound: CC[C@@H]1C(=O)N(C)c2cnc(Nc3ccc(C(=O)NC4CCN(C)CC4)cc3OC)nc2N1C1CCCC1
How it was run: as §1

[4] = compound: CCn1cc(-c2ccnc3[nH]c(-c4cccc(CN(C)C)c4)cc23)c(-c2ccc(NC(=O)N(C)C)cc2)n1
How it was run: as §1

[5] = compound: CN1CCC(CNc2ccc3ncc(-c4cccc(OC(F)(F)F)c4)n3n2)CC1
How it was run: as §1

[6] = compound: CN1CCN(CCOc2cc(OC3CCOCC3)c3c(Nc4c(Cl)ccc5c4OCO5)ncnc3c2)CC1 [saracatinib]
How it was run: as §1

[7] = compound: CN1CCN(c2nc(C3=C(c4c[nH]c5ccccc45)C(=O)NC3=O)c3ccccc3n2)CC1 [sotrastaurin]
How it was run: as §1

[8] = compound: CN1CC[C@H](c2c(O)cc(O)c3c(=O)cc(-c4ccccc4Cl)oc23)[C@H](O)C1 [alvocidib]
How it was run: as §1

[9] = compound: CNC(=O)C1=CC=CC=C1NC2=NC(=NC=C2Cl)NC3=C(C=C(C=C3)N4CCOCC4)OC
How it was run: as §1

[10] = compound: CNC(=O)c1ccc(Nc2ncc(C(F)(F)F)c(NCc3nccnc3N(C)S(C)(=O)=O)n2)cc1 [defactinib]
How it was run: as §1

[11] = compound: CNc1nc(-c2ccc3c(N)n[nH]c3c2)cc(N2C[C@@H](C(=O)NC3CCCCC3)CC[C@H]2C)n1
How it was run: as §1

[12] = compound: COC(=O)N[C@@H](C)CNc1nccc(-c2cn(C(C)C)nc2-c2cc(Cl)cc(NS(C)(=O)=O)c2F)n1 [encorafenib]
How it was run: as §1

[13] = compound: COC(=O)[C@H](CCSC)NC(=O)C1=C(C=C(C=C1)NC[C@H](CS)N)C2=CC=CC=C2
How it was run: as §1

[14] = compound: COc1cc(Nc2ncc3c(n2)-c2ccc(Cl)cc2C(c2c(F)cccc2OC)=NC3)ccc1C(=O)O [alisertib]
How it was run: as §1

[15] = compound: COc1cc2ncnc(Nc3ccc(F)c(Cl)c3)c2cc1OCCCN1CCOCC1 [gefitinib]
How it was run: as §1

[16] = compound: CCn1c(C(=O)N(C2CC2)C2CC2)cc2c3c(ncn3C)c(Nc3cc(C)n(C)n3)nc21
How it was run: as §1

[17] = compound: CN1CCc2c(c3ccccc3n2Cc2ccc(C(=O)NO)cc2)C1 [Tubastatin A]
How it was run: as §1

[18] = compound: CCCS(=O)(=O)Nc1ccc(F)c(C(=O)c2c[nH]c3ncc(Cl)cc23)c1F
How it was run: as §1

[19] = compound: CC[C@@H]1C(=O)N(C)c2cnc(Nc3ccc(C(=O)N[C@H]4CC[C@H](N5CCN(CC6CC6)CC5)CC4)cc3OC)nc2N1C(C)C [volasertib]
How it was run: as §1

[20] = compound: COc1cc2nc(-c3cc(F)ccc3O)nc(N[C@@H]3CNC[C@H]3C(C)(C)O)c2cc1OC
How it was run: as §1

Measured: log2 fold change

NAB2 (UniProt Q15742)
inactive: [1] 0.06 | [2] 0.009 | [3] 0 | [4] 0.114 | [5] 0.016 | [6] 0.135 | [7] 0.019 | [8] -0.005 | [9] 0.113 | [10] 0.029 | [11] -0.013 | [12] -0.02 | [13] 0.033 | [14] 0.003 | [15] -0.015

MYBL2 (UniProt P10244)
inactive: [1] -0.07 | [3] 0.013 | [16] 0.069 | [4] 0.217 | [5] -0.296 | [6] 0.057 | [7] 0.043 | [8] 0 | [17] -0.15 | [9] 0.045 | [10] 0.113 | [11] -0.016 | [12] 0.088 | [13] -0.023

NAGA (UniProt P17050)
inactive: [1] -0.001 | [18] 0.031 | [2] -0.043 | [3] 0.019 | [19] 0.006 | [16] -0.022 | [4] 0.052 | [5] 0.037 | [6] -0.02 | [7] 0.018 | [8] 0 | [17] 0.024 | [9] 0.053 | [10] 0.012 | [11] 0.016 | [12] 0.044 | [13] -0.021 | [14] 0.001 | [20] 0.003 | [15] 0.102

NCKAP1L (UniProt P55160)
inactive: [1] -0.14 | [18] 0.032 | [2] 0.131 | [3] -0.068 | [19] 0.004 | [16] -0.049 | [4] -0.025 | [5] -0.082 | [6] -0.083 | [7] 0.032 | [8] -0.033 | [17] -0.043 | [9] 0.198 | [10] 0.009 | [11] 0.063 | [12] 0.058 | [13] -0.223 | [14] 0.022 | [20] -0.025 | [15] -0.059

N4BP2L1 (UniProt Q5TBK1)
inactive: [1] 0.144 | [18] 0.021 | [2] 0.02 | [3] -0.119 | [19] 0.026 | [4] -0.305 | [5] 0.054 | [8] -0.147 | [10] -0.269 | [12] -0.012 | [13] 0.053 | [14] 0.055 | [20] -0.017 | [15] 0.087

MVK (UniProt Q03426)
inactive: [1] 0.007 | [18] 0.002 | [2] -0.025 | [3] -0.031 | [19] -0.024 | [16] 0.001 | [4] -0.098 | [5] 0.083 | [6] 0.012 | [7] 0.067 | [8] -0.001 | [17] -0.005 | [9] -0.01 | [10] -0.026 | [11] -0.006 | [12] 0.007 | [13] 0.017 | [14] 0.005 | [20] -0.013 | [15] -0.013

MYL3 (UniProt P08590)
inactive: [1] 0.026 | [18] 0.027 | [2] 0.143 | [3] 0.071 | [19] 0.04 | [16] -0.018 | [4] 0.118 | [5] -0.112 | [7] -0.044 | [8] 0.047 | [17] 0.023 | [9] -0.046 | [10] -0.009 | [12] 0.012 | [13] -0.035 | [14] 0.028 | [20] -0.014 | [15] -0.119

MYO18B isoform 3 (UniProt Q8IUG5)
inactive: [1] -0.058 | [18] -0.057 | [2] 0.003 | [3] -0.155 | [19] -0.066 | [6] -0.002 | [7] -0.059 | [9] 0.19 | [10] -0.022 | [11] -0.001 | [12] 0.028 | [13] 0.057 | [20] 0.034

NCOA1 (UniProt Q15788)
inactive: [1] -0.033 | [18] 0.029 | [2] 0.035 | [3] 0.031 | [19] -0.017 | [16] 0.017 | [4] -0.034 | [5] -0.009 | [6] 0.023 | [7] 0.013 | [8] -0.01 | [17] -0.027 | [9] 0.043 | [10] -0.076 | [11] 0.026 | [12] 0.075 | [13] 0.012 | [14] -0.017 | [20] 0.011 | [15] -0.053

NAT14 (UniProt Q8WUY8)
inactive: [1] 0.08 | [3] 0.061 | [16] 0.033 | [4] -0.058 | [5] -0.264 | [6] 0.086 | [7] 0.137 | [8] -0.111 | [17] -0.145 | [9] 0.025 | [10] 0.088 | [11] 0.051 | [12] 0.158 | [13] 0.306

MYB isoform 4 (UniProt P10242)
inactive: [1] -0.126 | [18] 0.02 | [2] 0.013 | [3] -0.058 | [19] -0.038 | [16] 0.058 | [4] 0.332 | [5] -0.074 | [6] -0.071 | [7] 0.069 | [8] 0.017 | [17] -0.147 | [9] 0.058 | [10] 0.006 | [11] -0.006 | [12] 0.056 | [13] -0.185 | [14] -0.008 | [20] -0.032 | [15] 0.094

2 entries picked at random from those above:
N4BP2L1 (UniProt Q5TBK1)
inactive: [1] 0.144 | [18] 0.021 | [2] 0.02 | [3] -0.119 | [19] 0.026 | [4] -0.305 | [5] 0.054 | [8] -0.147 | [10] -0.269 | [12] -0.012 | [13] 0.053 | [14] 0.055 | [20] -0.017 | [15] 0.087

MYL3 (UniProt P08590)
inactive: [1] 0.026 | [18] 0.027 | [2] 0.143 | [3] 0.071 | [19] 0.04 | [16] -0.018 | [4] 0.118 | [5] -0.112 | [7] -0.044 | [8] 0.047 | [17] 0.023 | [9] -0.046 | [10] -0.009 | [12] 0.012 | [13] -0.035 | [14] 0.028 | [20] -0.014 | [15] -0.119

The list continues.

NAA15, A0A0B4J1W3
inactive: [1] -0.055 | [18] 0.007 | [2] -0.017 | [3] -0.101 | [19] -0.021 | [16] 0.059 | [4] -0.004 | [5] 0.012 | [6] -0.054 | [7] 0.035 | [8] -0.001 | [17] -0.104 | [9] -0.031 | [10] 0.018 | [11] -0.054 | [12] 0.036 | [13] 0.04 | [20] -0.032

MYO1G (UniProt B0I1T2)
inactive: [18] -0.072 | [2] 0.216 | [3] -0.09 | [19] 0.026 | [4] 0.33 | [5] -0.158 | [6] -0.057 | [7] 0.017 | [8] 0.122 | [9] -0.079 | [11] -0.021 | [12] -0.084 | [13] 0.163 | [14] 0.167 | [20] -0.094 | [15] -0.035

MYC isoform 2 (UniProt P01106)
inactive: [16] 0.16 | [4] -0.106 | [5] 0.072 | [8] 0.036 | [17] -0.075 | [14] 0.008 | [15] -0.094

— the supplement of paper PMC10849652
